According to patent US20190300610A1:
These are yes or no findings as the source states them, for the method shown. A result given as binding can be weak or reduced; the word gives no strength.

Target: human VISTA polypeptide (ELISA coat) (human)
Experiment: ELISA, target protein coated at 1 µg/ml

binding	Binder
binds	anti-VISTA clone 13D5-1 IgG1 (antibody, V domains shown) VH: QVQLQQSGAELVRPGTSVKISCKASGYTFTNYWLGWVKQRPGHGLEWIGDIYPGGGYTNYNEKFKGKATLTADTSSSTAYMQLSSLTSEDSAVYFCVRSGYYYGSSWYFDVWGAGTTVTVSS VL: DVLMTQTPLSLPVSLGDQASISCRSSQSIVHSSGNTYLEWYLQKPDQSPKLLIYKVSNRFSGVPDRFSGSGSGTDFTLKISRVEAEDLGVYYCFQGSHVPPTFGGGTKLEIKR
binds	anti-VISTA clone 13D5-13 IgG1 (antibody, V domains shown) VH: QVQLQQSGAELVRPGTSVKISCKASGYTFTNYWLGWVKQRPGHGLEWIGDIYPGGGYTNYNEKFKGKATLTADISSSTAYMQLSSLTSEDSADYFCVRGGYYYGSSWYFDVWGAGTTVTVSS VL: DVLMTQTPLSLPVSLGDQASISCRSSQSTVHSIGNTYLEWYLQKPGQSPKLLIYKVSNRFSGVPDRFSGSESGTDFTLKISRVEAEDLGVYYCFQGSHVPPTFGGGTKLEIKR
